Among all 53,000 sequences or so, about 3,700 (7%) were called active.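 The calls were made as follows: active = gene knockdowns whose robust z-score for IL-1 alpha signal is at least 2 or at most -2, so actives lie on both sides; inactive = the rest.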 The list shows a part of the results.

The test can be described thus: Components of the Cytosolic LPS Sensing Pathway: Gene Identification via Genome-wide siRNA Screen.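 Also: robust z of the log signal after scaling to non-targeting control siRNA wells of the plate.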 Particulars: RAW264.7 macrophages, IL-1a HTRF, actives lie on both sides, screened at 100 nM (by protocol), cells primed 5 h with Pam3CSK4 first. The procedure, abridged: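 Read-out: IL-1a HTRF on supernatant, divided by plate negative-control median ×100, log-transformed and converted to robust z-score. Cells were RAW264.7 given 100 nM siRNA, Pam3CSK4-primed 5 hours, then LipidA-transfected 24 hour.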
(TR-FRET usually uses a lanthanide donor and a delayed reading to cut background.)
Turning to GGCCCAGGAAGAAACAUGUTT against Tff1, the z-score was inactive: 0.463.

With GGAAAAAAGAGUCACUUCCTT against Rag1, the z-score is inactive: 0.439.

Regarding GGGUUUAGAAAGAUGAAUGTT against Tbcel, the z-score is inactive: -0.189.

In the case of “GGCAAACAGGUUGAUCGUGTT against 1700123K08Rik”, the z-score was inactive: -1.39.

Take GGCCGGAGAAAUCAUUGAGTT against Nme7: the z-score was inactive: -0.452.

For GCUAUGUUAGGAGAAAUGCTT against Copb1, the z-score was inactive: -0.11.

On to CCGAAAUUCUGACUGAGAATT against Tm2d2, for which the z-score is inactive: -1.29.

Turning to GGACAAGCAUGUUUUCUGCTT against Vmn1r40, the z-score was inactive: 0.16.

With GCACAAAUUUGGUAGUGUUTT against Nup50, the z-score was inactive: -1.53.

Consider CCUGGCUAUUAGAUCGCGUTT against Kif12, for which the z-score is inactive: 1.19.

As for GGAGCUCAAAACCUCCAAGTT against Osr1, the z-score is inactive: -0.42.

For GCUGUUGGAUCCUUUCCUATT against Slc25a26, the z-score is inactive: -1.51.

With GGAAUUUGUGGAAACAGGATT against Tnfaip3, the z-score is inactive: -0.441.

Turning to CCAGCUUACCUUUGAAAAATT against Dusp12, the z-score was inactive: 1.29.

Turning to GGUUUACCCAAAGAACUCGTT against Snap29, the z-score was inactive: 0.157.

Turning to CCACCUUGUUGAGUGGCACTT against Smarcd3, the z-score was inactive: -0.177.

Consider GCUGGAUUCUGGUAAAUGGTT against Eif5a, for which the z-score was inactive: -0.836.

Take CCUGGUACUGAUUACUCCATT against Adam20: the z-score was inactive: 0.447.

As for CGAAAAAAAUCCAAGUCAATT against Akap12, the z-score was inactive: -0.28.

GGUAAUUAAAACCAUGGAGTT against Rex1bd: the z-score is inactive: -0.0412.

In the case of CCUUUCGAUGAUAAUCGAATT against Olfr971, the z-score is inactive: 1.1.

Turning to GGCUAUGACUCGAUUUCUATT against Msh5, the z-score is inactive: 0.875.

Turning to GGACGUAUACAUUCAAUCUTT against Ubash3a, the z-score was inactive: 0.2.

With GGAGGCUGAAAACAUCGUGTT against Sncg, the z-score was inactive: -0.49.

As for GGAUCUGGAGCAGCUUCAGTT against Veph1, the z-score is inactive: -0.188.

As for GGGAUUUCGCCAUUGGUGUTT against Col15a1, the z-score was inactive: -0.312.

In the case of GGAGAAAGUCAAGACCCUCTT against Jund, the z-score is inactive: 0.473.

With “CCGCAUAAGAGAAUCAAGGTT against 1700012B09Rik”, the z-score was inactive: -0.0578.

Regarding CGCGGAAGUUUGAAGUCCUTT against Tusc1, the z-score was inactive: -0.427.

For the sequence CGUGCCAGACCUAUAGCUUTT against Mlxip, the z-score was inactive: -0.226.

On to GGCAGAUCUGGAGAACCAGTT against Rras, for which the z-score was inactive: -1.6.

Regarding GUACUUUCUUAUUCUCCAATT against Tas2r123, the z-score is inactive: -0.497.

Turning to GCUAGCCAAUUGUGUUUGATT against Gjb3, the z-score was inactive: 1.12.

For the sequence GGUCUCAAAGAAAUCUGUATT against Bcap29, the z-score was active: -2.4.

Turning to UCUUUGGGUAGUUUAGGUATT against Olfr1310, the z-score is inactive: 0.0559.

As for GGUUACGAAGAUUAAUGUGTT against Crk, the z-score is inactive: 1.27.

As to GGCCUAUCCAUAAUUUAUCTT against Mcm8, the z-score was inactive: 0.828.

For GGCAUGAAUGAGUUUAUCATT against Vps8, the z-score was inactive: -1.12.

Consider GGAUGGAGAAGUUUACUACTT against Yap1, for which the z-score was inactive: 0.714.

Regarding GGAUGUCACAACAGUUAUGTT against Otog, the z-score is inactive: -0.571.

With GCUAUUCAAUAUUUAUGGCTT against Zic1, the z-score was inactive: -0.176.

On to CGGUGAUAGUGGAGUUUGUTT against Olfr266, for which the z-score is inactive: 0.542.

CCUGUAUACUAUCACUUGUTT against Casp8: the z-score was inactive: 0.103.

Consider GGUCUUCAAGAACUGUAGCTT against Bcl11b, for which the z-score is inactive: 1.09.

Consider GCCUCCAGAACUCACUGCATT against Hes3, for which the z-score is active: -2.04.

Take GCUUGCCUGCAUGGAUACATT against Olfr1205: the z-score was inactive: -1.27.

Regarding GCUCACUUAUCUACGUUUUTT against Trim15, the z-score is inactive: 0.639.

In the case of GGAUCGUUUUAAUAGUCUGTT against Dscc1, the z-score is inactive: 0.396.

On to CCUGAUGCCAGUUAACAGUTT against Rcan1, for which the z-score was inactive: 0.516.

For the sequence GGCCCAUAUUUGACUAUAATT against Tlr4, the z-score is inactive: -0.559.

With GGGAGGUUCACAUCCUAAATT against Tgfbr3, the z-score is inactive: -1.01.

For GGGCACCAAGAAAAGUCUCTT against Mageh1, the z-score is inactive: -0.166.

Take CCGGUUAGCUCAGUAUGACTT against Mief1: the z-score is inactive: -0.536.

Turning to CCUGUGCUUUUGUGCAUUATT against Clta, the z-score is inactive: 0.000931.

In the case of CGGUCACUUUCAACAUCAATT against C1qbp, the z-score was inactive: 0.504.

Turning to GCCCAAACGUGCAGUAAGUTT against Zfp623, the z-score was inactive: -0.749.

For the sequence CCACAUUAAAUACGCAACATT against Nos3, the z-score is inactive: -1.26.

Consider GGCAUAAAACAGAUUCCUUTT against Tac1, for which the z-score was inactive: -0.477.

In the case of GGAUCUGGAAAAAGCAACUTT against Mzt2, the z-score was inactive: -0.224.

Turning to CGGCCUUCUCUACAAAUCATT against Rbfa, the z-score is inactive: 0.816.

Consider GGCAAAGAAUUCAAUCGGATT against Atp2b2, for which the z-score is inactive: -0.235.

Consider GGGCUUGUCCAUGAUGAACTT against Rb1cc1, for which the z-score was inactive: 0.27.

Take UCUCAUUGCAAUUCUGGGATT against Olfr675: the z-score is inactive: 0.566.

For GGAAAGACCUAAGCAAUUATT against Klhl28, the z-score is inactive: -0.287.

For CGUUAGUACAAUAUACAAGTT against St18, the z-score was inactive: 1.53.

Regarding CCAAACGAGAGAAAUUCAATT against Rin1, the z-score is inactive: 1.8.

In the case of “GCUAUUGCCUUACUUUAAGTT against Vmn2r-ps11”, the z-score was inactive: 0.409.

Turning to GGACUGUGAGGCCUAUGAATT against Cd72, the z-score is inactive: -0.1.

As to CCGACUCGUCUUUACAACUTT against Abcc6, the z-score is inactive: -0.935.

With GGCUAUUAAACAGAAACUGTT against Ric8a, the z-score is inactive: -0.934.

Turning to UACAUUACUUCAACUGGAATT against Vmn2r43, the z-score is inactive: 0.285.

As for GGCAUAUUCUUUUCAACACTT against Arv1, the z-score was inactive: -1.78.

For GCUACUUCCAAUUGAACAATT against Fsd2, the z-score was inactive: -0.716.

For GGCCAGAUAUUAUAAGAAATT against Gtdc1, the z-score is inactive: 0.332.

Turning to GCUCCUAGCAGCUCUGAUGTT against Trim33, the z-score was inactive: -0.396.

For the sequence GGAUUUAGGACAAAAGGCATT against Noc3l, the z-score was inactive: -1.44.

On to GGAAGAAUUGAGGAAAUAGTT against Bbx, for which the z-score was inactive: 1.03.

Regarding CGUUAGCAUCAGGUCAAGUTT against Zfp251, the z-score is inactive: -0.323.

Take GGAAGUCUGCCUGUUCUUGTT against Galnt10: the z-score is inactive: 0.744.

With GGUUAUCACAGGUAAAUGATT against Sim1, the z-score was inactive: 0.524.

As to CGUUUGACCAAAACAGAAUTT against Fbxw10, the z-score was inactive: 0.709.

Turning to GGUGCAGUCCUCCAGAAUUTT against Sppl2b, the z-score was inactive: 1.04.

Take GCAAAACCCAACAACUCUGTT against Lig3: the z-score is inactive: 1.05.

Regarding GCAAAAUGGUUCCUUUGGATT against Sec24c, the z-score was inactive: -0.396.

On to GGAUCCUGAUCAGCUAUAUTT against Kat2a, for which the z-score was inactive: -0.763.

Take GCUAUCGGCGUGAUUCAGATT against Fut7: the z-score was inactive: 0.304.

As for GGACUUUCUUCACGUGUAUTT against Fbxl12os, the z-score is inactive: 0.934.

As to GCACGAAGGUCGUUAUUAUTT against Wls, the z-score is inactive: -0.28.

GGGAGACCACAAUCAGCCATT against Kirrel: the z-score is inactive: -0.28.

As to GCCUGUGUAUUCUCGCUAUTT against Mon1a, the z-score was inactive: 0.345.

In the case of GGCCUAUCCUCCAACAACATT against Yipf5, the z-score was inactive: -0.148.

Turning to GGCAUCAAAGAGAUCAUAGTT against Atp8a2, the z-score was inactive: -0.885.

In the case of GCUGAGGACAUAUAAACUCTT against Nipsnap1, the z-score was inactive: -0.105.

On to GGCAACAUUAUCAACAUGUTT against Bdh2, for which the z-score is inactive: -1.29.

In the case of GGUGUCGGAUAUAGAAAAGTT against Pnma1, the z-score is inactive: -0.493.

For CGUCGUAUAAAUCGUAAAGTT against Tent4a, the z-score is inactive: 0.353.

Take GGCAGUUUCUUCUUCCAAATT against H1f1: the z-score was active: 2.89.

Turning to GGCCAAGUUCAACAUUCCATT against Lilrb4a, the z-score is inactive: 0.539.

Consider GCGAAACAUAAACUGGGCATT against Fgd2, for which the z-score was inactive: 1.37.

For GGCUUAAGGUGAGAUAUUCTT against Sp9, the z-score is inactive: -0.524.

CCUGUGGAUUAUGAGUUCATT against Zeb1: the z-score is inactive: 0.0702.

With GGACCUAAGGACUUGUUGATT against Chdh, the z-score is inactive: -0.584.

With GGUAUUCAAUACACAAUUCTT against Mlh1, the z-score is inactive: 1.32.

Consider GCCGAAUCACUUAAGUCCATT against Fbln1, for which the z-score was inactive: -1.15.

With GGGACAGUACAGAGUGCUGTT against Hmx1, the z-score was inactive: 0.755.

As to GGAAGAAAGAGAGGUGUGATT against Nxf2, the z-score was active: -2.26.

As for GGAAAAUGUAAACAAGUACTT against Xpo5, the z-score is inactive: -0.595.

The record behind these values is PubChem BioAssay AID1508600 (Functional Genomics Laboratory (NCATS/FGL), 2020).
